The filed quantity is “Percent Effect” (%).
How 0% and 100% were set is not recorded. Most values in the screen are low, and negative values occur.
This is an unselected part of the compounds tested.

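Assay of Toxoplasma gondii numbers, read through their beta-galactosidase reporter with a colour substrate. Tested at 50 µM. Higher reads as fewer parasites (inferred from which compounds were picked for retests). Size under these conditions: about 18,000 compounds, about 170 of them at 50% or above in at least one test.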

structure,percent effect
Fc1ccc(N2CCNCC2)nc1,-5.176
CCn1cc(C(=O)OCCC2CCCO2)cn1 (stereo not shown),4.706
CCCNC(=O)NC(=O)CNc1cc(F)ccc1F,-17.19
Cc1nccc(NC(=O)C2CN(C)CCO2)c1Cl (stereo not shown),0
O=C1OCCN1C1CCNC1 (stereo not shown),-15.39
CCN1CC2(CCN(Cc3ncc[nH]3)CC2)OC1=O,-8.69
CNS(=O)(=O)c1ccc2c(c1)oc(=O)n2C,-14.22
COc1c(CNCc2cc(C)on2)c(C)nn1C,-3.666
COCCNC(=O)CN(C)c1ccc(Br)cc1C#N,-5.41
COC1CCCNCC1 (stereo not shown),-13.76
CCN1CCN(CC(=O)Nc2ccc(Cl)cn2)CC1,5.488
CNCC(O)CN1CCc2ccccc2CC1 (stereo not shown),42.9
COc1cc2c(nn1)CCNC2,23.14
CC(=O)c1c[nH]c(C(=O)NC2(C)CCS(=O)(=O)C2)c1 (stereo not shown),-4.42
CSc1ccc(CN(C)[C@H]2COC[C@@H]2O)cc1,14.91
CCC(c1nnc(SCC(=O)NCC(C)C)o1)N(C)C (stereo not shown),2.942
CCCC(NC(C)=O)C(=O)N(C)Cc1cc[nH]n1 (stereo not shown),-10.86
CC(C)COCCN1CCN(Cc2ccon2)CC1,0.7264
CNC(C)c1ccncc1 (stereo not shown),-4.06
Cn1nccc1[C@@H]1OCCC[C@H]1CN,34.74
NC1CCCN(C(=O)C2CC2)C1 (stereo not shown),-2.67
Cc1nn(C)c(C)c1CC(=O)NCCc1ccccn1,-1.397
O=C(Nc1cc(Cl)ccc1F)C1=COCCO1,-8.899
CC(N)C(=O)N1CCN(C2CCCCC2)CC1 (stereo not shown),-14.9
CS(=O)(=O)NCc1ccnc(Oc2ccc(F)cc2)c1,-3.571
NCC1CCN(C(=O)Cc2ccccc2)C1 (stereo not shown),-5.225
COc1ccc(C(=O)NCC2(C)COC2)c(F)c1F,-5.274
COc1cccc(C(N)C(C)C)n1 (stereo not shown),-9.367
CN(Cc1cccc2cnccc12)C(=O)CNC(N)=O,-1.109
CC(=O)NC1CCN(C(=O)CSC(C)(C)C)CC1,-8.622
C[C@@H]1CN(C(=O)c2ccc(N)nc2)C[C@@]1(O)C1CC1,-15.57
CC(C)Cn1ccnc1CNc1ncccc1F,14.86
Cc1nn(C)c(C)c1CN1CC(C)C1,14.29
Cc1ccncc1NC(=O)Nc1cnccc1C,-24.27
O=S1(=O)CCNCc2ccccc21,27.36
CS(=O)(=O)N[C@@H]1CCCC[C@H]1N,-17.31
COCC(N)c1cccc(Cl)c1 (stereo not shown),-40.82
COc1ccc(S(N)(=O)=O)c(OC)c1OC,2.651
CC(C)(C)NS(=O)(=O)c1ccccc1CN,7.301
C[C@@H]1CN(C(=O)Nc2ccnn2C)C[C@H](C)O1,0.9197
Cc1ccccc1C1(O)CCN(Cc2cccnc2)C1 (stereo not shown),5.529
Cc1cc(C(=O)NCC(F)F)c2c(C)nn(C)c2n1,-20.56
OC1(c2c(F)cccc2F)CCNCC1,12.44
Nc1cccc(C(=O)N2CCCC(CCCO)C2)n1 (stereo not shown),16.5
O=C(Cc1cccc(O)c1)NCCn1cc(Cl)cn1,-5.158
COCC(C)(CCO)NCc1cc(C#N)ccc1F (stereo not shown),0.6809
COC(=O)[C@@H](C)NC1CCN(c2ccccn2)CC1,-4.862
O=C(c1cn[nH]c1-c1cccs1)N1CCSCC1,-25.13
COCC(C)NS(=O)(=O)c1c(C)noc1C (stereo not shown),-10.43
O=C(c1cc(-n2cnnn2)ccc1Br)N1CCOCC1,-5.09
CCCC(C(=O)OCC)n1ccc(N)n1 (stereo not shown),-10.22
CCN(CCN1CCCCCC1)C(=O)c1cnc[nH]1,-0.3291
CN(C)C(CNC(=O)CN1CCCC1=O)c1cccs1 (stereo not shown),-6.132
COCCNCCNC(=O)c1noc2c1CCCC2,-5.518
CCOCCC(=O)N1CCCC(O)(C(F)(F)F)C1 (stereo not shown),-6.2
COCCn1cnnc1C(C)NC(=O)c1ccc(C)s1 (stereo not shown),1.568
OCc1cccc2ncccc12,2.048
CNC(=O)Cc1ccc(NC(=O)c2ccco2)cc1,-0.7206
NCCCn1ccnn1,1.688
NC(=O)C1CCN(c2ccnc3ccc(Cl)cc23)C1 (stereo not shown),-5.142
CCN1CCC(CNCc2ccco2)C1 (stereo not shown),8.983
O=C(CN1CCC=C(F)C1)Nc1cccc(F)c1,43.84
C1CCC(COCCc2noc(C3CNC3)n2)C1,57.88
CCc1ncc(C(=O)N2CCN(c3nccs3)CC2)s1,-14
COCCC(N)c1ccco1 (stereo not shown),5.763
COCCN(C)CCNC(=O)c1ccc(C)c(OC)c1,2.496
O=C(NCc1nnc2ccccn12)C1CCOCC1,13.15

Some entries from above, unchanged:

* Cn1nccc1[C@@H]1OCCC[C@H]1CN | 34.74%
* CSc1ccc(CN(C)[C@H]2COC[C@@H]2O)cc1 | 14.91%
* O=S1(=O)CCNCc2ccccc21 | 27.36%
* CC(=O)c1c[nH]c(C(=O)NC2(C)CCS(=O)(=O)C2)c1 (stereo not shown) | -4.42%
* CCCC(C(=O)OCC)n1ccc(N)n1 (stereo not shown) | -10.22%
* C1CCC(COCCc2noc(C3CNC3)n2)C1 | 57.88%

Source: ChEMBL document CHEMBL3988442, “University of Dundee, Small-Polar-MMV Screening Library” (2021).